Laboratory results: PubChem BioAssay AID720505 (Drosophila RNAi Screening Center, 2013)
The screen tested about 20,000 reagents; below is an unselected part of those that have a named target and a result. Of all reagents, about 2,100 (10%) got an active call. 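Raw plate signals without normalisation; calls rest on control-based scores that were not deposited; replicate 2 separates called from uncalled poorly.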 Names joined by + are all predicted targets of the reagent. Reagent sequences are not shown. Not given: the amount of reagent, the time to read-out.

Assay: 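Fly regulators or components of the CRAC channel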 (primary screen)
System: Drosophila S2R+ cells
Knock-down reagent: long dsRNA against Drosophila genes
Conditions: thapsigargin (2 µM) in calcium-free buffer to empty internal stores, then 2 mM calcium added back
Measured: 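Stores emptied by 2 µM thapsigargin without calcium, then 2 mM calcium re-added; fluo-4 fluorescence followed by FLIPR in 384-well plates, per-well averaged endpoint, raw; two screen passes, some wells retested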
Reading the numbers: calcium signal and retest calcium signal: higher = more calcium entry after store depletion
Call rule: 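Knock-downs counted as hits when calcium entry dropped relative to STIM1 positive and Rho1 negative controls present on each plate; roughly 1500 genes called, with reductions of differing size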
Meaning of the calls: active = called as lowering calcium entry; inactive = not called

no.	gene	DRSC id	calcium signal, replicate 1	calcium signal, replicate 2	retest calcium signal, replicate 1	retest calcium signal, replicate 2	Call
1	Cpr49Ae (Cuticular protein 49Ae)	DRSC07201	169	146			inactive
2	AANATL7 (Arylalkylamine N-acetyltransferase-like 7)	DRSC18616	96	138			inactive
3	Rok (Rho kinase)	DRSC20277	115	91.2			inactive
4	Rok (Rho kinase)	DRSC23348	98.7	155			inactive
5	Eb1	DRSC05016	128	222			inactive
6	CNPYb (Canopy b)	DRSC09845	95	90.3			inactive
7	Vps37B (Vacuolar protein sorting 37B)	DRSC12165	68.5	119			active
8	Pld (Phospholipase D)	DRSC04854	180	120			inactive
9	grsm (granny smith)	DRSC14165	104	88.1			inactive
10	grsm (granny smith)	DRSC14843	97.4	102			inactive
11	CG14989	DRSC08448	140	88.3			inactive
12	schuy (schumacher-levy)	DRSC10284	109	129			inactive
13	bbg (big bang)	DRSC11077	88.7	162			inactive
14	bbg (big bang)	DRSC11079	63.6	182			inactive
15	Drsl3 (Drosomycin-like 3)	DRSC22630	106	186			inactive
16	pyx (pyrexia)	DRSC08510	109	125			inactive
17	pyx (pyrexia)	DRSC08511	95.8	94.6			inactive
18	Obp56c (Odorant-binding protein 56c)	DRSC06552	125	151	107	75.4	inactive
19	Obp56c (Odorant-binding protein 56c)	DRSC22325	102	184			inactive
20	moi + Tgs1	DRSC16371	146	148			inactive
21	Grip (Glutamate receptor interacting protein)	DRSC17940	238	136			inactive
22	Grip (Glutamate receptor interacting protein)	DRSC18395	220	128			inactive
23	CG10680	DRSC02093	102	95			inactive
24	SuUR (Suppressor of Under-Replication)	DRSC11292	147	148			inactive
25	CG42516 + Pbp49	DRSC06073	197	176			inactive
26	RabX5	DRSC08608	81.7	93.9			inactive
27	CG30269	DRSC04158	94.8	219			inactive
28	Corp (Companion of reaper)	DRSC17771	160	70.8			inactive
29	CG31274 + MESK4	DRSC13202					inactive
30	CG13055	DRSC09936	81.5	142			inactive
31	CG1902	DRSC06798	153	120			inactive
32	CG6216	DRSC10606	89.8	94.4			inactive
33	CG7140	DRSC11799	89.2	134			inactive
34	CG17010	DRSC02559	93.8	141			inactive

Entries listed so far whose target name begins with R or r:
gene	DRSC id	calcium signal, replicate 1	calcium signal, replicate 2	retest calcium signal, replicate 1	retest calcium signal, replicate 2	Call
Rok (Rho kinase)	DRSC20277	115	91.2			inactive
Rok (Rho kinase)	DRSC23348	98.7	155			inactive
RabX5	DRSC08608	81.7	93.9			inactive
